In US8044089B2, “3-3-di-substituted-oxindoles as inhibitors of translation initiation” (President and Fellows of Harvard College, priority 2004, dated 2011):
At least one structure is not confirmed: it was looked up by name or label, or the drawing left a doubt.

Test system: intracellular Ca^2+ stores
Assay: Ca2+ release from intracellular stores (FURA-2AM loaded cells)
Type: cell-based
Excerpt: As a non-limiting example, compounds 1272 and 1273 (set forth in Table 1) were synthesized starting from 3-bromoaniline, which upon condensation with hydroxylamine and chloral hydrate followed by concentrated sulfuric acid yielded an inseparable regioisomeric mixture of 4- and 6-bromo isatins. The addition of the two phenyl groups to the three position of the oxindole allowed easy chromatographic separation of the 4- and 6-bromo-3,3-diphenyloxindoles 1272 and 1273. Table 1 sets forth biological data for diaryloxindole compounds including, but not limited to 1272 and 1273. […]
Without intending to be bound by theory, the mechanism of action of translation initiation inhibitors is set forth in FIG. 1, and includes the depletion (complete or partial depletion) of intracellular calcium (Ca^2+) stores and phosphorylation of eIF2α. […] The Ca^2+ content of the ER was monitored using ER-targeted, Ca^2+ sensitive, recombinant proteins. […] Compounds that depleted Ca^2+ were further evaluated for their ability to phosphorylate eIF2α. eIF2α phosphorylation was measured by Western blot analysis using the phospho-specific anti-eIF2α antibody, as previously described (Aktas et al. (1998) Proc. Natl. Acad. Sci. USA, 95:8280, incorporated herein by reference in its entirety for all purposes).

Compound: Cc1cc(C2(c3ccccc3)C(=O)Nc3ccccc32)c(NS(=O)(=O)c2ccc(C(C)(C)C)cc2)cc1O (stereo not shown) [Compound 1430, 4-tert-butyl-N-[5-hydroxy-4-methyl-2-(2-oxo-3-phenyl-2,3-dihydro-1H-indol-3-yl)-phenyl]-benzenesulfonamide]
- Ca^2+ release / depletion of intracellular Ca^2+ (in words): released calcium
